Assay results reported in patent publication US20020164620A1, “Method for identifying compounds modulating sister chromatid separation” (Boehringer Ingelheim International GmbH, priority 2001, published 2002).
No constants are given. Whether binding was seen depends on the method and setting. Some entries that bind do so weakly or less than the wild type.

The chains behind the UniProt entries cited, without tags or fusion partners. Where a name states a change or a piece, a line headed by the entry shows the natural chain unless it says otherwise.
UniProt Q14674: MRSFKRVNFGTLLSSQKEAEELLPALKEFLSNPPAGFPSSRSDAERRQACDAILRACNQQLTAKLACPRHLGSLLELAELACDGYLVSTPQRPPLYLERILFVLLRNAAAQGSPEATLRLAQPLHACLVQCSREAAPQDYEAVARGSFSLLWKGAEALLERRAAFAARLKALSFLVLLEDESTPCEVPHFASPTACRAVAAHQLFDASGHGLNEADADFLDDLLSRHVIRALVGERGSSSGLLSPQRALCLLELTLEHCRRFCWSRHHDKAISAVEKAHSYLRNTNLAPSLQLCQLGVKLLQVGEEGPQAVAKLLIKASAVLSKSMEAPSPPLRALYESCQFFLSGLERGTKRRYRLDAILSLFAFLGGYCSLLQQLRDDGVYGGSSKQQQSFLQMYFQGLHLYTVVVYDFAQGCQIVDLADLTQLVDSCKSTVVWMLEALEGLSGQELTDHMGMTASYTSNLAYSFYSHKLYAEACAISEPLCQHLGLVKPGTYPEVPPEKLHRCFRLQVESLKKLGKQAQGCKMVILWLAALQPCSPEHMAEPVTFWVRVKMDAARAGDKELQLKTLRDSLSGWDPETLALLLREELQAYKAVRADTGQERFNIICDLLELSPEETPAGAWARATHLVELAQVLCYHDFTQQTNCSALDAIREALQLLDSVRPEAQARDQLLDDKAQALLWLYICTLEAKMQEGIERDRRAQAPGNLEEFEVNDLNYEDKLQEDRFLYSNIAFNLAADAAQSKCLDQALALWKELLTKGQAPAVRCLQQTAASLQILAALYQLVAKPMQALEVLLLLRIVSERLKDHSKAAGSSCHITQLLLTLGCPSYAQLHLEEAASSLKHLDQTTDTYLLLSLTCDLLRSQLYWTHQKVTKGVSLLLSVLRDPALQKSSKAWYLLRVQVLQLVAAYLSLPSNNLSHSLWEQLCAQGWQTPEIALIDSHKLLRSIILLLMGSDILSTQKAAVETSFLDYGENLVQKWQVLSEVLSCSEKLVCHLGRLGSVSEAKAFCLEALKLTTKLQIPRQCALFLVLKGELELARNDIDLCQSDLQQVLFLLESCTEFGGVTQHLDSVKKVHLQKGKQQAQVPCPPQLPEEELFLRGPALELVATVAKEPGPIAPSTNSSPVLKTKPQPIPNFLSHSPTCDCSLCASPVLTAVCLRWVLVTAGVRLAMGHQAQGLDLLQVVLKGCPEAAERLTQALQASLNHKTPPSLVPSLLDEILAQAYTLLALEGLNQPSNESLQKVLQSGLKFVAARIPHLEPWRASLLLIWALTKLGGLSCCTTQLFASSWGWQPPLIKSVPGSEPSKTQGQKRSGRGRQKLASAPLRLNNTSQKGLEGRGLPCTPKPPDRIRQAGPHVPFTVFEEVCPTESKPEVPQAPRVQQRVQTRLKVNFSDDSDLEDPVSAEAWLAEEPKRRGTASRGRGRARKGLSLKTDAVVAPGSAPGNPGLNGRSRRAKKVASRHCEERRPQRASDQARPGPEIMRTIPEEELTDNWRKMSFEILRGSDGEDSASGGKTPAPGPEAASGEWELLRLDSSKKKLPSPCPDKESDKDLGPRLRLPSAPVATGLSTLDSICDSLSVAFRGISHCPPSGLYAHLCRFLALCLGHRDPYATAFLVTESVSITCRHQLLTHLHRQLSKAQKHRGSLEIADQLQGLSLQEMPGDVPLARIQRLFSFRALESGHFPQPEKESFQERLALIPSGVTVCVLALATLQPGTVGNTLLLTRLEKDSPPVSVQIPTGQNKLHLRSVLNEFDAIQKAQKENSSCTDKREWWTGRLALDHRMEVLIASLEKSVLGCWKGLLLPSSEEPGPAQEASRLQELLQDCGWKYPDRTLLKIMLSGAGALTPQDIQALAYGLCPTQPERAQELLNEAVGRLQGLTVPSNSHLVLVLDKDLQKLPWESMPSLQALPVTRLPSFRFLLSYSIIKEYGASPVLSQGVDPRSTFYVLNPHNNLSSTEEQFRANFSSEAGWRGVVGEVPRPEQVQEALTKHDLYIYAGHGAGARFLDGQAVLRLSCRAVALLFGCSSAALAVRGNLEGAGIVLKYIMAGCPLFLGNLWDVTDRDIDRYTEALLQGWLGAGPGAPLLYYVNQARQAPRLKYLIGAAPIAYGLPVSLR

Molecular target: full-length human separase (human) (UniProt Q14674)
Test: activation of the separase IP in mitotic Xenopus extract in the presence of the peptide, avidin blot (FIG. 4B, lane 2i)

binding: binds
B1: Bio-SVEQGR-amk (peptide)
peptide: SVEQGR
modifications: N-terminal biotin; C-terminus modified to an acyloxymethyl ketone (amk)
